Test results from US20200206266A1 (JULIUS MAXIMILIANS UNIVERSIT T W RZBURG, published 2020).
No constants are given. Whether binding was seen depends on the method and setting. Binding calls can cover weak binding; strength is not graded here. Where a sequence is shown, tags or fusion partners need not be part of it.

Sequences of proteins named here, by UniProt entry; tags and fusion partners are left off. A change or cut given only in a name is not applied to a line headed by its entry.
UniProt P36888: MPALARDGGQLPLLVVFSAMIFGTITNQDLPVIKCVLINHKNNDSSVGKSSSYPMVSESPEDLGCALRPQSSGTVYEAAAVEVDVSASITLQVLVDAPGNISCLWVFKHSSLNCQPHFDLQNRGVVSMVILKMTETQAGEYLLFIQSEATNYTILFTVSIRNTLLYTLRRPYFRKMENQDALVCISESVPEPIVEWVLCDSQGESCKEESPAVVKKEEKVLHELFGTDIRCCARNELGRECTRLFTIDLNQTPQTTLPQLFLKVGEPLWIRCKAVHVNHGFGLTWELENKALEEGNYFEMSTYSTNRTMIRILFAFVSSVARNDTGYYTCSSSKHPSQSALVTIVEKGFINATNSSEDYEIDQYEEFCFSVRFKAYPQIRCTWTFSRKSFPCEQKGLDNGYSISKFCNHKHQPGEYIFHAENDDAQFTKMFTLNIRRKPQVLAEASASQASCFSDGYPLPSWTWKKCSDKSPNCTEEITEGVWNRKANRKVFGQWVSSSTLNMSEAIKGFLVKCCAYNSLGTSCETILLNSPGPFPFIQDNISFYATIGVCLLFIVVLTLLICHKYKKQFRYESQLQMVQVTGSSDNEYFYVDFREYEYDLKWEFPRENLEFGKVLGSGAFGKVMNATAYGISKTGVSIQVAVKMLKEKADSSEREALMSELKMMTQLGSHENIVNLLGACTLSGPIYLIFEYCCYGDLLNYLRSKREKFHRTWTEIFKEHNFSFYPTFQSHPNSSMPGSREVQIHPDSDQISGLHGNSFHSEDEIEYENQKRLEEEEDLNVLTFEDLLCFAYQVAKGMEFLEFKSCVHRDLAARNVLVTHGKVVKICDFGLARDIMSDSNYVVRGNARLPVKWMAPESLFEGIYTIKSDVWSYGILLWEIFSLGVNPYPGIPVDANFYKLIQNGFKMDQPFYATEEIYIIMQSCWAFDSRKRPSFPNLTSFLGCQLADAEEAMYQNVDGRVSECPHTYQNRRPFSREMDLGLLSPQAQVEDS

Target: FLT3 with internal tandem duplication (FLT3-ITD) (human) (UniProt P36888)
Test: flow cytometry, staining of MOLM-13 and MV4;11 cells (FLT3-ITD+)

- binding: binds
B1: mouse-anti-human-FLT3 mAb (clone 4G8, BD Pharmagin, BD Biosciences) (antibody, V domains shown)
VH: QVQLQQPGAELVKPGASLKLSCKSSGYTFTSYWMHWVRQRPGHGLEWIGEIDPSDSYKDYNQKFKDKATLTVDRSSNTAYMHLSSLTSDDSAVYYCARAITTTPFDFWGQGTTLTVSS
VL: DIVLTQSPATLSVTPGDSVSLSCRASQSISNNLHWYQQKSHESPRLLIKYASQSISGIPSRFSGSGSGTDFTLSINSVETEDFGVYFCQQSNTWPYTFGGGTKLEIKR
notes: Bought, fluorochrome-conjugated mouse antibody, used with a mouse IgG1 isotype control; also called anti-FLT3 mAb (4G8); anti-FLT3 4G8 mAb
